Measurements reported in the supplement of paper PMC12823440, “Inhibitors supercharge kinase turnover through native proteolytic circuits” (Nature, 2025).
Counter-ions that a name gives are not always drawn. This is one part of the list. Hit calls seldom repeat between salt and free forms of one compound.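 Kinases, fused to nanoluciferase, were expressed in K562 cells; luminescence was measured every 4 h from 2 to 18 h as percent of control (DMSO = 100%, positive control = 0%). A time point is decreased if signal falls significantly (2 sigma). Hits were called by the authors by a rule that is not shown; the count of time points alone does not decide it.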

Chains of the proteins cited; added tags and fusions are not shown. Lines headed by an entry give the natural chain unless they say otherwise; changes in a name come on top.
UniProt Q15208: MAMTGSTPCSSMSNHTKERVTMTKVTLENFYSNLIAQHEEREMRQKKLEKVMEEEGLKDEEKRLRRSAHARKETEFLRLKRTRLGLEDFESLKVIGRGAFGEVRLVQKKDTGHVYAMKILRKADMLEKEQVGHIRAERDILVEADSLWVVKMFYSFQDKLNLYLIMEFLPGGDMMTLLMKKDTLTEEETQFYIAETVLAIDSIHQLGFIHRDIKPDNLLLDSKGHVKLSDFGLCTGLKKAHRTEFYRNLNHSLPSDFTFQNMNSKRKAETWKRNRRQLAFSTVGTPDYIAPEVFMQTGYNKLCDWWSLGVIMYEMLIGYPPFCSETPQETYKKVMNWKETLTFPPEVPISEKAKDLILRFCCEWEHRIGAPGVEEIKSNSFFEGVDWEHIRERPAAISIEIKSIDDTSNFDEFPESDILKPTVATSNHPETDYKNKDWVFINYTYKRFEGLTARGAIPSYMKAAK
UniProt P42680: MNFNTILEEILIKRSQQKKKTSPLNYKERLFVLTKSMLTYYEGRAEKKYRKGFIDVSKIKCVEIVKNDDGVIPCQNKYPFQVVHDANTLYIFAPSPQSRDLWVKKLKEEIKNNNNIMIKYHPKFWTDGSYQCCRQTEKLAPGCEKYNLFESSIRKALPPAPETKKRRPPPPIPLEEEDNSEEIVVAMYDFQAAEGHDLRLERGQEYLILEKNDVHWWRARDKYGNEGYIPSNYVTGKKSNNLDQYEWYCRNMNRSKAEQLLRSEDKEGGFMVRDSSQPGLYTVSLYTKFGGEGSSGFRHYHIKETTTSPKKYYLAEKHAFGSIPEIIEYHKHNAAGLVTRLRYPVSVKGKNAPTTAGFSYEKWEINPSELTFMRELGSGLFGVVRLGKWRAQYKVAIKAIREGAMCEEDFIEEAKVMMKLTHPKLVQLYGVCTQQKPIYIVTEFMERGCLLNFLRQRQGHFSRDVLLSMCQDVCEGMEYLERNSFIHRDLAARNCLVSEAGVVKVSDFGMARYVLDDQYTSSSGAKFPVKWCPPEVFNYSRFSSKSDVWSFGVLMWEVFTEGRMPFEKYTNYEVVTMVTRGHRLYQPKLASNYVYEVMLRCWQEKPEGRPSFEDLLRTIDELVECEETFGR
UniProt P29597: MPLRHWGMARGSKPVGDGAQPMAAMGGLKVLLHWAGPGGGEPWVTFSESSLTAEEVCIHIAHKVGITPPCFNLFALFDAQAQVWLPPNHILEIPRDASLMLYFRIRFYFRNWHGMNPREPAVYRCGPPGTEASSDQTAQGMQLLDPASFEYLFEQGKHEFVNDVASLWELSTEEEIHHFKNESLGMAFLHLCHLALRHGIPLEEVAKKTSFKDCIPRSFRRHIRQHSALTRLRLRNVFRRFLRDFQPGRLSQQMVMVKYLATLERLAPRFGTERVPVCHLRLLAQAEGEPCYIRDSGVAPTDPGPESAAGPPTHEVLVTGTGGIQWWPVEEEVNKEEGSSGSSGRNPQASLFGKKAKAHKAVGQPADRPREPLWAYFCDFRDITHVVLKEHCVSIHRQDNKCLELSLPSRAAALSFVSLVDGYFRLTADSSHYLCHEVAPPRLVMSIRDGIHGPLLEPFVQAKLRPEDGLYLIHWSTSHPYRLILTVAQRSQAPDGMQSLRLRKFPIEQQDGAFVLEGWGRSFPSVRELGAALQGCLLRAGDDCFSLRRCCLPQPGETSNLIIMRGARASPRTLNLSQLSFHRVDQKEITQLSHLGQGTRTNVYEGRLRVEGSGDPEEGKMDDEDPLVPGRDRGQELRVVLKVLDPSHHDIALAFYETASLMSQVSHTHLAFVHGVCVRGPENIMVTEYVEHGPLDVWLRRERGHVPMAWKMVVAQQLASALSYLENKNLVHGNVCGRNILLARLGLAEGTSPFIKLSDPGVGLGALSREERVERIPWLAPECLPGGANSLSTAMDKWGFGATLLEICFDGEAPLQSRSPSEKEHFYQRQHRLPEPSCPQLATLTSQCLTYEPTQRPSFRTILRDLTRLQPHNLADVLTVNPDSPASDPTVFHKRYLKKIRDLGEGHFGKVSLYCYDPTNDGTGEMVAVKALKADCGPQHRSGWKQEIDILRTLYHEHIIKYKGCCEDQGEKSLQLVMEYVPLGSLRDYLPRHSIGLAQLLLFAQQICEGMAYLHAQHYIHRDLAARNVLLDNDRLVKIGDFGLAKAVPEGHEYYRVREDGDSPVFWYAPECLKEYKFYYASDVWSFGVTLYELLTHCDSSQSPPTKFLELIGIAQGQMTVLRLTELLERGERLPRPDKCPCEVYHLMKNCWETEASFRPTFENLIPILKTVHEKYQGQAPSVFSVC
UniProt Q6PHR2: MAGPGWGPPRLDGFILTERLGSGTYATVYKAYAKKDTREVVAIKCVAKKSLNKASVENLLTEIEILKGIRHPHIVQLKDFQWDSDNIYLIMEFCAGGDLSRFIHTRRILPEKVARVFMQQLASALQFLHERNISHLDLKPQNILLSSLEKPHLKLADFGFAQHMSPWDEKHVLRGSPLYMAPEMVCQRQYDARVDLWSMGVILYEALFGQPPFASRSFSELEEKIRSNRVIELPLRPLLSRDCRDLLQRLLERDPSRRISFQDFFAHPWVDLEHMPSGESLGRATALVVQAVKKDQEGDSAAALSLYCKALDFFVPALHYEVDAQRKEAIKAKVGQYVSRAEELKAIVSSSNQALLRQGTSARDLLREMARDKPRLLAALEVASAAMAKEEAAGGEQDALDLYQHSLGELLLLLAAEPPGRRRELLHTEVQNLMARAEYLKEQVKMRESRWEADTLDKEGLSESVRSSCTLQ
UniProt P07947, whole entry, looked up: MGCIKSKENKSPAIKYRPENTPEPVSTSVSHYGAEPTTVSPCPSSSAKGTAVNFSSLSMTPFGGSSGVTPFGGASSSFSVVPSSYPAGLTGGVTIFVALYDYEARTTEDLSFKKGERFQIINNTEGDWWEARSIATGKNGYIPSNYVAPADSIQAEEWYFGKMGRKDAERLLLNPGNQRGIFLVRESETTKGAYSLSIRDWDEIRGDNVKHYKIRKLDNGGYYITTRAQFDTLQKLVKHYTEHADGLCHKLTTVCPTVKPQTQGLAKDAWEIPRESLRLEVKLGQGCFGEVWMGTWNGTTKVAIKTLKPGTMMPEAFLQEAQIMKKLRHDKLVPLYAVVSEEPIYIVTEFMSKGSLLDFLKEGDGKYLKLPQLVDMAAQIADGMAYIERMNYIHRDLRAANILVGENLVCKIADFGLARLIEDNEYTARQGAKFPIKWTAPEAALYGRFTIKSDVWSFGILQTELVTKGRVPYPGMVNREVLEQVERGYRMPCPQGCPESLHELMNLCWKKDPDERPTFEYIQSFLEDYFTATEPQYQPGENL
UniProt P43403: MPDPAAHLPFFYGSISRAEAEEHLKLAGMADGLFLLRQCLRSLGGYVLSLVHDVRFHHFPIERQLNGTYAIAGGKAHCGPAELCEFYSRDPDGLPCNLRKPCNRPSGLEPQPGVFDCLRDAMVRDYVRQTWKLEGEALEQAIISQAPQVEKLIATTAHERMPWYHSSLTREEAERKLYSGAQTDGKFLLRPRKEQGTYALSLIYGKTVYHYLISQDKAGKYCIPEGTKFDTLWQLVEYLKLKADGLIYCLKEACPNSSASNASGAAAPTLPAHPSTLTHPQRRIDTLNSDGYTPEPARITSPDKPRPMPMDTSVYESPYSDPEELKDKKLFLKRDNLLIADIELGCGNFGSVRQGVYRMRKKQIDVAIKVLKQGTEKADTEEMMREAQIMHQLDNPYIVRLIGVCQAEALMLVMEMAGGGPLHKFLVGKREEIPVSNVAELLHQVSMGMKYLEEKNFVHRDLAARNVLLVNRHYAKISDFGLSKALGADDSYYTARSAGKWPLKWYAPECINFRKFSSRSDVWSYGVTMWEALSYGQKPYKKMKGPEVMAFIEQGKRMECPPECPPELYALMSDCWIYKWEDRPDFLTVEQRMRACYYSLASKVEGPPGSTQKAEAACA
UniProt P00519, whole entry: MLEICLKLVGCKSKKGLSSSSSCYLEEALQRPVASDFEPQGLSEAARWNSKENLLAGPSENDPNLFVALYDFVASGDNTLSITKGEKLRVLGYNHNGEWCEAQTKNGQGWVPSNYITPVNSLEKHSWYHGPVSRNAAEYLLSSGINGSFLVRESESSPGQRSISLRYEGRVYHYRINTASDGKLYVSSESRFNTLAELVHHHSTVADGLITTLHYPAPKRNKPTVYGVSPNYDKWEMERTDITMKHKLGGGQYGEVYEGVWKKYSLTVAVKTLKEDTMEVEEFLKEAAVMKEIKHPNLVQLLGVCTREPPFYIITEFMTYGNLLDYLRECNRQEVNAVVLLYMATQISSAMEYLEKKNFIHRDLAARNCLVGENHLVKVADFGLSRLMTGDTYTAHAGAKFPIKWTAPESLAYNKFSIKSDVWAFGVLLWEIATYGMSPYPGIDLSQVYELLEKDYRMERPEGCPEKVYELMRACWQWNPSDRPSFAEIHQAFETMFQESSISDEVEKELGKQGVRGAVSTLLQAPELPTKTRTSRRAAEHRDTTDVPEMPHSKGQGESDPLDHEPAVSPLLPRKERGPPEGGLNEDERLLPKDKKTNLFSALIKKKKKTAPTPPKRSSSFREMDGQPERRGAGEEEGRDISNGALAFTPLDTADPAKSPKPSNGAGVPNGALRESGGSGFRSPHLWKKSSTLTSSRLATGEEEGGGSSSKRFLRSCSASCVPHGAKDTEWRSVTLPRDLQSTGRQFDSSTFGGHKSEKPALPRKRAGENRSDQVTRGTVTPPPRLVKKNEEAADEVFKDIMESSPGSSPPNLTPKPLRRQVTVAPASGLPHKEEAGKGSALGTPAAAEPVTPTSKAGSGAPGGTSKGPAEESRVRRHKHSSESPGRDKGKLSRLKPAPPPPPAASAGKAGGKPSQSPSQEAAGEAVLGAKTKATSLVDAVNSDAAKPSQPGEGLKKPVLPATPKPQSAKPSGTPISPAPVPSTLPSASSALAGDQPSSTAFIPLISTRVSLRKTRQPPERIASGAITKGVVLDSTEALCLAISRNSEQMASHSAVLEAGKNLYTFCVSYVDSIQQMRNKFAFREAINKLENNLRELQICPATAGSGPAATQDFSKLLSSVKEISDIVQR
UniProt P31749: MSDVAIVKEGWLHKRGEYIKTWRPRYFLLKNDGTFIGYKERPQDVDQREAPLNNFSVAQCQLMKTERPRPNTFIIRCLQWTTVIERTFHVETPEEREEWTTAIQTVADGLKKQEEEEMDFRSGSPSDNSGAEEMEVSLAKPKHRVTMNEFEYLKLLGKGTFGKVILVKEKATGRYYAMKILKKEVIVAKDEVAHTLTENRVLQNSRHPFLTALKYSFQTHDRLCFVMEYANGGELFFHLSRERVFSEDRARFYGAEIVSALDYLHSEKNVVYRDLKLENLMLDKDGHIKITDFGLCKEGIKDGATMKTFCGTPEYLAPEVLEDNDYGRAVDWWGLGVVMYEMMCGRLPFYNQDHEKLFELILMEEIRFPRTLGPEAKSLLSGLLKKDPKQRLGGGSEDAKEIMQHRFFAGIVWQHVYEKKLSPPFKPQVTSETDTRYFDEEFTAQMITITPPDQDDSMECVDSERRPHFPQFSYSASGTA

Columns and labels:
Settings in all cases: K562; 2-18 h
[1] = biological target: STK38 (UniProt Q15208); assay: kinase-Nluc reporter destabilization hit call (1 = scored as downregulated) (binary); higher = compound decreases kinase abundance
[2] = biological target: SYK (UniProt P43405); assay: as above
[3] = biological target: TEC (UniProt P42680); assay: as above
[4] = biological target: TYK2 (UniProt P29597); assay: as above
[5] = biological target: ULK3 (UniProt Q6PHR2); assay: as above
[6] = biological target: YES1 (UniProt P07947); assay: as above
[7] = biological target: ZAK (UniProt Q9NYL2); assay: as above
[8] = biological target: ZAP70 (UniProt P43403); assay: as above
[9] = biological target: ABL1 (UniProt P00519); assay: number of time points (of 5) at which kinase-Nluc abundance scored as decreased, DMSO-normalised (count); higher = more persistent destabilization
[10] = biological target: AKT1 (UniProt P31749); assay: as above

| SMILES | kinase-Nluc reporter destabilization hit call [1] | kinase-Nluc reporter destabilization hit call [2] | kinase-Nluc reporter destabilization hit call [3] | kinase-Nluc reporter destabilization hit call [4] | kinase-Nluc reporter destabilization hit call [5] | kinase-Nluc reporter destabilization hit call [6] | kinase-Nluc reporter destabilization hit call [7] | kinase-Nluc reporter destabilization hit call [8] | number of time points [9] | number of time points [10] |
| --- | --- | --- | --- | --- | --- | --- | --- | --- | --- | --- |
| CCCCCCCC/C=C\CCCCCCCC(=O)NCC(=O)O [N-Oleoyl glycine] (10 µM) | inactive: 0 | inactive: 0 | inactive: 0 | inactive: 0 | inactive: 0 | inactive: 0 | inactive: 0 | inactive: 0 | 0 | 0 |
| CN(C)Cc1cccc(N=C(c2ccccc2)c2c(O)[nH]c3cc(C(N)=O)ccc23)c1 (10 µM) | inactive: 0 | inactive: 0 | inactive: 0 | inactive: 0 | inactive: 0 | inactive: 0 | inactive: 0 | inactive: 0 | 0 | 0 |
| C[C@@H]1COCCN1c1cc(=O)n2c(n1)N(Cc1cncc(Cl)c1)[C@H](C(F)(F)F)CC2 (10 µM) | inactive: 0 | inactive: 0 | inactive: 0 | inactive: 0 | inactive: 0 | inactive: 0 | inactive: 0 | inactive: 0 | 0 | 0 |
| Cc1ccc(-c2nn(C(C)(C)CNC(=O)c3ccncc3)c3ncnc(N)c23)cc1 (2.5 µM) | inactive: 0 | inactive: 0 | inactive: 0 | inactive: 0 | inactive: 0 | inactive: 0 | inactive: 0 | inactive: 0 | 0 | 0 |
| NC(=O)c1ccc(-c2cnn3ccc(NCc4cccnc4)nc23)cc1 (2.5 µM) | inactive: 0 | inactive: 0 | inactive: 0 | inactive: 0 | inactive: 0 | inactive: 0 | inactive: 0 | inactive: 0 | 0 | 0 |
| COc1cc(N2CCC(N(C)C)CC2)ccc1Nc1ncc(Cl)c(Nc2ccccc2P(C)(C)=O)n1 (2.5 µM) | inactive: 0 | inactive: 0 | inactive: 0 | inactive: 0 | inactive: 0 | inactive: 0 | inactive: 0 | inactive: 0 | 0 | 0 |
| O=C(O)c1ccc(N2N=C(Cc3ccccc3)C(=Cc3ccc(-c4ccccc4F)o3)C2=O)cc1 (10 µM) | inactive: 0 | inactive: 0 | inactive: 0 | inactive: 0 | inactive: 0 | inactive: 0 | inactive: 0 | inactive: 0 | 0 | 0 |
| CN(C)c1nc2c(Br)c(Br)c(Br)c(Br)c2n1CC(=O)O (10 µM) | inactive: 0 | inactive: 0 | inactive: 0 | inactive: 0 | inactive: 0 | inactive: 0 | inactive: 0 | inactive: 0 | 0 | 0 |
| O=C(NOCCO)c1ccc2cncn2c1Nc1ccc(I)cc1F (10 µM) | inactive: 0 | inactive: 0 | inactive: 0 | inactive: 0 | inactive: 0 | inactive: 0 | inactive: 0 | inactive: 0 | 0 | 0 |
| C[C@H]1[C@H](OC(=O)CCC(=O)O)O[C@@H]2O[C@@]3(C)CC[C@H]4[C@H](C)CC[C@@H]1[C@@]24OO3 [Artesunate] (2.5 µM) | inactive: 0 | inactive: 0 | inactive: 0 | inactive: 0 | inactive: 0 | inactive: 0 | inactive: 0 | inactive: 0 | 2 | 0 |
| CN1C(=O)NC(Cc2c[nH]c3c(Cl)cccc23)C1=O (racemic) [Necrostatin 2 (racemate)] (10 µM) | inactive: 0 | inactive: 0 | inactive: 0 | inactive: 0 | inactive: 0 | inactive: 0 | inactive: 0 | inactive: 0 | 0 | 0 |
| Cc1ccc(-c2ncn(-c3ccc(Nc4nccc(-c5cccc(N6CCOCC6)c5)n4)cc3)n2)cn1 (10 µM) | inactive: 0 | inactive: 0 | inactive: 0 | inactive: 0 | inactive: 0 | inactive: 0 | inactive: 0 | inactive: 0 | 0 | 0 |
| N=C(N)NC(=N)NCCc1ccccc1 [Phenformin (hydrochloride)] (10 µM) | inactive: 0 | inactive: 0 | inactive: 0 | inactive: 0 | inactive: 0 | inactive: 0 | inactive: 0 | inactive: 0 | 1 | 0 |
| CCOc1c([C@H](C)n2nc(C)c3c(N)ncnc32)cc(Cl)c(F)c1[C@@H]1CNC(=O)C1 [Parsaclisib (hydrochloride)] (10 µM) | inactive: 0 | inactive: 0 | inactive: 0 | inactive: 0 | inactive: 0 | inactive: 0 | inactive: 0 | inactive: 0 | 0 | 0 |
| CC1=C(CC(=O)O)c2cc(F)ccc2/C1=C\c1ccc(C(C)C)cc1 (10 µM) | inactive: 0 | inactive: 0 | inactive: 0 | inactive: 0 | inactive: 0 | inactive: 0 | inactive: 0 | inactive: 0 | 0 | 0 |
| NS(=O)(=O)c1ccc(N2N=C(c3ccccc3)CC2c2ccccc2)cc1 (stereo not given) (10 µM) | inactive: 0 | inactive: 0 | inactive: 0 | inactive: 0 | inactive: 0 | inactive: 0 | inactive: 0 | inactive: 0 | 1 | 0 |

3 compounds out of the list, ordered by molar mass, smallest number first:

| SMILES | kinase-Nluc reporter destabilization hit call [1] | kinase-Nluc reporter destabilization hit call [2] | kinase-Nluc reporter destabilization hit call [3] | kinase-Nluc reporter destabilization hit call [4] | kinase-Nluc reporter destabilization hit call [5] | kinase-Nluc reporter destabilization hit call [6] | kinase-Nluc reporter destabilization hit call [7] | kinase-Nluc reporter destabilization hit call [8] | number of time points [9] | number of time points [10] |
| --- | --- | --- | --- | --- | --- | --- | --- | --- | --- | --- |
| NC(=O)c1ccc(-c2cnn3ccc(NCc4cccnc4)nc23)cc1 (2.5 µM) | inactive: 0 | inactive: 0 | inactive: 0 | inactive: 0 | inactive: 0 | inactive: 0 | inactive: 0 | inactive: 0 | 0 | 0 |
| COc1cc(N2CCC(N(C)C)CC2)ccc1Nc1ncc(Cl)c(Nc2ccccc2P(C)(C)=O)n1 (2.5 µM) | inactive: 0 | inactive: 0 | inactive: 0 | inactive: 0 | inactive: 0 | inactive: 0 | inactive: 0 | inactive: 0 | 0 | 0 |
| CN(C)c1nc2c(Br)c(Br)c(Br)c(Br)c2n1CC(=O)O (10 µM) | inactive: 0 | inactive: 0 | inactive: 0 | inactive: 0 | inactive: 0 | inactive: 0 | inactive: 0 | inactive: 0 | 0 | 0 |
